Assay [1] deals with Gal4NLBD589A (Gal4 DNA-binding domain fused to the Nurr1 ligand binding domain with alanine for aspartic acid at amino acid 589) (UniProt P04386). The experiment in a line: yeast two-hybrid, X-gal (white with the empty vector).
Assay [2] shares this target. The experiment in a line: yeast two-hybrid, growth on -His (no growth with the empty vector).

The chains behind the UniProt entries cited, without tags or fusion partners.
UniProt P19793: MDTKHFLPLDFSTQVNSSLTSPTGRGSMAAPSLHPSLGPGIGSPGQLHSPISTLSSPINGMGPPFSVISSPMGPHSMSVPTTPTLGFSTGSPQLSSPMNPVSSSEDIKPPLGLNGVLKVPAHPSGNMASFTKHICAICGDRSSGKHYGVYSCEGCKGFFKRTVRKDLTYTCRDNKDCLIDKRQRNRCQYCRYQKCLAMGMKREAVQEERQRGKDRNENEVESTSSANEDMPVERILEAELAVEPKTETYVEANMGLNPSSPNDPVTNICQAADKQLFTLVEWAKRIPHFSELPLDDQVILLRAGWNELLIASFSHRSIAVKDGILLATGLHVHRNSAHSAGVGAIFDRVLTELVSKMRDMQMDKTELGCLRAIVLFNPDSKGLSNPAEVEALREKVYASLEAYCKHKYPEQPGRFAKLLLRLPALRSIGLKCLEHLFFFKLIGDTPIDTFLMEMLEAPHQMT

No constants are given. Whether binding was seen depends on the method and setting. Some results given as binding are weak or reduced against the parent protein; the word gives no strength.

On to “pPC86-RXR (Gal4 activation domain fused to full-length human RXRα) (from UniProt P19793 1-462)”, for which the binding entry in assay [1] and in assay [2] was “binds” each time.

Source of the values: patent US20110268748A1.
